Measurements published in the supplement of paper PMC12823440, “Inhibitors supercharge kinase turnover through native proteolytic circuits” (Nature, 2025).
Where a name gives a salt, the structure may show the parent alone. Some of the results follow. Hit calls seldom repeat between salt and free forms of one compound.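 Kinases, fused to nanoluciferase, were expressed in K562 cells; luminescence was measured every 4 h from 2 to 18 h as percent of control (DMSO = 100%, positive control = 0%). A time point is decreased if signal falls significantly (2 sigma). Hits were called by the authors by a rule that is not shown; the count of time points alone does not decide it.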

Protein sequences, listed by entry. Tags and fused reporters are not part of them. Lines headed by an entry give the natural chain unless they say otherwise; changes in a name come on top.
UniProt P07949, whole entry, looked up: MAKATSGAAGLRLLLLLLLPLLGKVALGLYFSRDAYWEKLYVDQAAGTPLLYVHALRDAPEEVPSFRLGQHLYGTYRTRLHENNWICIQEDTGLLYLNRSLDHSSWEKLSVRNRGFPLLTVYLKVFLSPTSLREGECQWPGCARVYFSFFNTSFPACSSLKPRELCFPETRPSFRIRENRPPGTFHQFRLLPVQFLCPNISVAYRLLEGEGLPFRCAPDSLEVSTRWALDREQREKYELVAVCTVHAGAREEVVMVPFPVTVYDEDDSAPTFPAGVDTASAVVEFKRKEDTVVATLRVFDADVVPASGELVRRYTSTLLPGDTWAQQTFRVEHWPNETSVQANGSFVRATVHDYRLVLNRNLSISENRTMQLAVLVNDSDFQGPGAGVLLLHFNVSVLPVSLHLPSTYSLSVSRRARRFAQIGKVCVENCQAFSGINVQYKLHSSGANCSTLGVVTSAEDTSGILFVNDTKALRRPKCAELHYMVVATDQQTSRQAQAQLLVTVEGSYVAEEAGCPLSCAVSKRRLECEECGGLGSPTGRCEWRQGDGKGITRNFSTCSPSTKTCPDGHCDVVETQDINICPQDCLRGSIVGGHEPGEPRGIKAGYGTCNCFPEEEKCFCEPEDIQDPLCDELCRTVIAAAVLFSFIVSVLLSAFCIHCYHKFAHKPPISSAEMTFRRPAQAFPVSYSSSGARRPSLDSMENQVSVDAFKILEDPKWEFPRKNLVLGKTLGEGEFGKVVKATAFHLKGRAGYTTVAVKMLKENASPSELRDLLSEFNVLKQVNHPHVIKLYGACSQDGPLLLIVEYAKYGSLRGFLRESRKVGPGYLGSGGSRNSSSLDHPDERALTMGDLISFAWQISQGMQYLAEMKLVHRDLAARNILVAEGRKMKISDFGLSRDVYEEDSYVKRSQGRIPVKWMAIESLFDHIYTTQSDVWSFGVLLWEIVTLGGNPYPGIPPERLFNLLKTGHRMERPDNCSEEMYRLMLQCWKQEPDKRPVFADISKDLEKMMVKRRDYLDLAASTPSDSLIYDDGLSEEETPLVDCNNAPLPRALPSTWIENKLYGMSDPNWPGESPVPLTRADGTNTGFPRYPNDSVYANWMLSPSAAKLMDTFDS
UniProt P07949, whole entry M918T, looked up: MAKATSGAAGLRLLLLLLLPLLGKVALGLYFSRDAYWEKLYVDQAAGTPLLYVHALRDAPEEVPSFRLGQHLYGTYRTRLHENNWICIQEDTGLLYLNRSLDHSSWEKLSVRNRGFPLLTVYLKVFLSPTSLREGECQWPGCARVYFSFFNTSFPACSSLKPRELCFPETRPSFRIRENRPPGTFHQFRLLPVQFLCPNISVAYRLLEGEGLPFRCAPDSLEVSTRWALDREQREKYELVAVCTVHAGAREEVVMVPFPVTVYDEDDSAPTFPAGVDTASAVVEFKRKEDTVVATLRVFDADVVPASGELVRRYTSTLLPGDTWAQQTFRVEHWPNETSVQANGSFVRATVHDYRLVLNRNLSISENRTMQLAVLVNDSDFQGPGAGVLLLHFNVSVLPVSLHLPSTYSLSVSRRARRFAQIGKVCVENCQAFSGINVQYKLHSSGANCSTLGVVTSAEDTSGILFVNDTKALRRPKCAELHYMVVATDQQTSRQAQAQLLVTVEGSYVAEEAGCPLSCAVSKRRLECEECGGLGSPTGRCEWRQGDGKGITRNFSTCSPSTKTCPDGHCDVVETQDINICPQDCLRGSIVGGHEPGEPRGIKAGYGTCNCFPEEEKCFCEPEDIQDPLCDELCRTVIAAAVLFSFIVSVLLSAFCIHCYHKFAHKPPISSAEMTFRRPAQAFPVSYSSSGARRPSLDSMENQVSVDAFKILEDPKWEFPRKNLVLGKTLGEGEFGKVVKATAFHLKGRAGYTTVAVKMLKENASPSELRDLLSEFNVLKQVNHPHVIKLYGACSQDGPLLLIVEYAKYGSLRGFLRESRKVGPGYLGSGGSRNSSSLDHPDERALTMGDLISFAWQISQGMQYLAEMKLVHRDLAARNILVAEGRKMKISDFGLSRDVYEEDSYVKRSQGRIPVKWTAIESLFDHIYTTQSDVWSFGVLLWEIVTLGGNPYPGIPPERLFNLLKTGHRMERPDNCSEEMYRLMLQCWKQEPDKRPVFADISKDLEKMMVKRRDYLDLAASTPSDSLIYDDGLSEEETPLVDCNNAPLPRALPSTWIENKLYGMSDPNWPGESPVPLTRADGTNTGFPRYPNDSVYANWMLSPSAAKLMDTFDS
UniProt Q9BRS2: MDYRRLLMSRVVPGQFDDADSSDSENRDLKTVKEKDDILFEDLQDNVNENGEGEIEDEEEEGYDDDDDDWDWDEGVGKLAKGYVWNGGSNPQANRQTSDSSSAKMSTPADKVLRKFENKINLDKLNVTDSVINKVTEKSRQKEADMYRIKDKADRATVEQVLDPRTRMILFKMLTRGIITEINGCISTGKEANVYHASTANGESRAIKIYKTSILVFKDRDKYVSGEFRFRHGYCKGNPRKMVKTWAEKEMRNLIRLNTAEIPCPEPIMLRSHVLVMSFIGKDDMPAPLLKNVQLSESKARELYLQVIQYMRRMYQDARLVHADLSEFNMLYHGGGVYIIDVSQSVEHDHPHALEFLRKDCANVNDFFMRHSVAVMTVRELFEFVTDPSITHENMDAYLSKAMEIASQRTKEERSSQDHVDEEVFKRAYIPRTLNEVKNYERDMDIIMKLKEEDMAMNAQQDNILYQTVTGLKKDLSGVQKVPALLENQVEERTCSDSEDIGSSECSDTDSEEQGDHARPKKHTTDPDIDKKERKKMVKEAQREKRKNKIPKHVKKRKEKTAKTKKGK
UniProt Q13546: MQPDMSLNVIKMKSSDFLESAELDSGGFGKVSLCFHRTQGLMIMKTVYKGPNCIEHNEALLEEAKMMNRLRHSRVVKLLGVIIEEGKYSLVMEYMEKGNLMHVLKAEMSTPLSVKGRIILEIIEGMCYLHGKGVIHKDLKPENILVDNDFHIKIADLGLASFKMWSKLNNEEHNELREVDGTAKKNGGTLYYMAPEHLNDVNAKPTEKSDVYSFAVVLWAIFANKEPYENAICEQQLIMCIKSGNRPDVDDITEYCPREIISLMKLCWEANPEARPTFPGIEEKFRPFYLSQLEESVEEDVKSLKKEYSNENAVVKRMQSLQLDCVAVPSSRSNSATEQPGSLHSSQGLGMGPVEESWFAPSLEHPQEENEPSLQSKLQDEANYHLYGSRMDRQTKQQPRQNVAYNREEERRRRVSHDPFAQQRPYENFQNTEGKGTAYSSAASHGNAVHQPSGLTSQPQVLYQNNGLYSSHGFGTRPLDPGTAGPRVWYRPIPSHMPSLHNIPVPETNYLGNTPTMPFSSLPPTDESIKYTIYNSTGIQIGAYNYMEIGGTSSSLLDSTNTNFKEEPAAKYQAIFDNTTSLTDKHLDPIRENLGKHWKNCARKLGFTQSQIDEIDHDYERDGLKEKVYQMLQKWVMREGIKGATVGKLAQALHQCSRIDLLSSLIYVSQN
UniProt Q01974, whole entry: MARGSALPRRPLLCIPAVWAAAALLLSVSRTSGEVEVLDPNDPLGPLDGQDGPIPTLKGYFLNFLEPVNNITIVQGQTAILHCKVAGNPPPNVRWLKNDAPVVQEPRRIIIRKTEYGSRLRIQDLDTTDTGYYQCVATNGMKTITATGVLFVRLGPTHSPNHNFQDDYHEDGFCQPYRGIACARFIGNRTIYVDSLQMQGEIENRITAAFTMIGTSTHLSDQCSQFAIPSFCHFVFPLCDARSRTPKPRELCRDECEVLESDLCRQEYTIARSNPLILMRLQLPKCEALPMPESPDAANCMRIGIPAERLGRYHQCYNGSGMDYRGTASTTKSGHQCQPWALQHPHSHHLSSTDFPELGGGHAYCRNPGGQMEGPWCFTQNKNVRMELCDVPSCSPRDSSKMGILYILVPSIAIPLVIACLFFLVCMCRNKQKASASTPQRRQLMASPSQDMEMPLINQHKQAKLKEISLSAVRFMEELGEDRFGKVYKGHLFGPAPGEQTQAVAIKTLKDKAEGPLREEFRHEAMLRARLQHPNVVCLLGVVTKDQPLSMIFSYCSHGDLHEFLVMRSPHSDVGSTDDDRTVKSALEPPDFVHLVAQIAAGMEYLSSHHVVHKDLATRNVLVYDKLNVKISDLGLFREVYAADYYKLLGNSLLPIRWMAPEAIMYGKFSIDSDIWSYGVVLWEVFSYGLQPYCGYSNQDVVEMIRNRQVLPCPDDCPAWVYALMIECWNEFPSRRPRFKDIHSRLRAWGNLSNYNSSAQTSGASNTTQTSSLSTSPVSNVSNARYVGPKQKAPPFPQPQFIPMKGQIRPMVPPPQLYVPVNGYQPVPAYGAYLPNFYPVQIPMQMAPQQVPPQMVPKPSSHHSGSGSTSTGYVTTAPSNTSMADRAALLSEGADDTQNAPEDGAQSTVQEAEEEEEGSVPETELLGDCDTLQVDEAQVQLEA
UniProt Q15418, whole entry: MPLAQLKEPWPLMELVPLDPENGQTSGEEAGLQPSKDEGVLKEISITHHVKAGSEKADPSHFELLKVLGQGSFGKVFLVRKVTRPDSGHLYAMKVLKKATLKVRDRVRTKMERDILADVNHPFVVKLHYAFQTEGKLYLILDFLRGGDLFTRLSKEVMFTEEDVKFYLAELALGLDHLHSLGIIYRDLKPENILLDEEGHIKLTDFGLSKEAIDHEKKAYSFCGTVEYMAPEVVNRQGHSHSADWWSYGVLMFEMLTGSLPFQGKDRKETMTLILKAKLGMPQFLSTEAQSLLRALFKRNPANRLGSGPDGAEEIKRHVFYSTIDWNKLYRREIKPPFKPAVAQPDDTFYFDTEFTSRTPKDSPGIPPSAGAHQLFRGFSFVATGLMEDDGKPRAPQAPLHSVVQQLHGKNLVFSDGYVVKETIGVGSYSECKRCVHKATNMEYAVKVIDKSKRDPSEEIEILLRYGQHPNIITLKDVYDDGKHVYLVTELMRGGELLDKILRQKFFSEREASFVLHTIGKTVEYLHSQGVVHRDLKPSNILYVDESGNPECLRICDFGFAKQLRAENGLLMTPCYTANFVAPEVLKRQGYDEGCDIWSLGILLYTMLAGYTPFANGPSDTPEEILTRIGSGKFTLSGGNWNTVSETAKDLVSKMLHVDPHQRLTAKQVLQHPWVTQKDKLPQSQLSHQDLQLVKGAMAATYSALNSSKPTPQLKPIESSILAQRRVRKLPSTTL
UniProt Q9NYA1, whole entry: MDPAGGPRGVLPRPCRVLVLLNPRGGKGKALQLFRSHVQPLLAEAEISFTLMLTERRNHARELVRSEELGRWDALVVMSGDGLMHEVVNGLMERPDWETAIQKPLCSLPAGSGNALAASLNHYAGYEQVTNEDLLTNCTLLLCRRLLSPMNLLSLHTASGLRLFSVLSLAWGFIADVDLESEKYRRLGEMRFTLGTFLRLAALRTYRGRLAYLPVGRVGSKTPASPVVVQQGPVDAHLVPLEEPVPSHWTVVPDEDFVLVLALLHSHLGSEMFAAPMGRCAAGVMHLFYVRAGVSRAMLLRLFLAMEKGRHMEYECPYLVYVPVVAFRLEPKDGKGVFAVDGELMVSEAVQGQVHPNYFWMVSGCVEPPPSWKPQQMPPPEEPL
UniProt Q9Y6E0: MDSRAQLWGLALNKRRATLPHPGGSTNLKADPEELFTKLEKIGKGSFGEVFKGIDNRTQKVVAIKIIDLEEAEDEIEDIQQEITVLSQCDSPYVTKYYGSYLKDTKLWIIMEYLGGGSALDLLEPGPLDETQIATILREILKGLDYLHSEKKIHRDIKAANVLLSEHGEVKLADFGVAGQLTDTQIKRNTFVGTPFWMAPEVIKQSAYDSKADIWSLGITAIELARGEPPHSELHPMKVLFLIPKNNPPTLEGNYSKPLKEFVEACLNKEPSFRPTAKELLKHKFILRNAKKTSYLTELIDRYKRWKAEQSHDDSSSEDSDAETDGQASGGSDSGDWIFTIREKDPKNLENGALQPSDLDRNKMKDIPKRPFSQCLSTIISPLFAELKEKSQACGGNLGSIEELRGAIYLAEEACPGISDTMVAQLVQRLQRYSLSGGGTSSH

What was measured:
Assay in all cases: kinase-Nluc reporter destabilization hit call (1 = scored as downregulated) (binary); higher = compound decreases kinase abundance
Conditions in all cases: K562, 2-18 h
[1] = target: RET (UniProt P07949)
[2] = target: RET_M918T (clone: RET_mut) (UniProt P07949)
[3] = target: RIOK1 (UniProt Q9BRS2)
[4] = target: RIPK1 (UniProt Q13546)
[5] = target: RIPK2 (UniProt O43353)
[6] = target: ROR2 (UniProt Q01974)
[7] = target: RPS6KA1 (UniProt Q15418)
[8] = target: SPHK1 (UniProt Q9NYA1)
[9] = target: SRC (UniProt P12931)
[10] = target: STK24 (UniProt Q9Y6E0)

Measured: kinase-Nluc reporter destabilization hit call

COc1ccc2c(c1)C(c1ccc(F)cc1)=C(CN1CCCC1)CO2
inactive: [1]; 10 µM 0 | [2]; 10 µM 0 | [3]; 10 µM 0 | [4]; 10 µM 0 | [5]; 10 µM 0 | [6]; 10 µM 0 | [7]; 10 µM 0 | [8]; 10 µM 0 | [9]; 10 µM 0 | [10]; 10 µM 0

COc1cc2c(cc1OC)-c1c(C)c3ccc(OC)c(OC)c3c[n+]1CC2 [Dehydrocorydaline]
inactive: [1]; 10 µM 0 | [2]; 10 µM 0 | [3]; 10 µM 0 | [4]; 10 µM 0 | [5]; 10 µM 0 | [6]; 10 µM 0 | [7]; 10 µM 0 | [8]; 10 µM 0 | [9]; 10 µM 0 | [10]; 10 µM 0

OCCn1cc(-c2cnc3nnn(Cc4ccc5ncccc5c4)c3n2)cn1
inactive: [1]; 10 µM 0 | [2]; 10 µM 0 | [3]; 10 µM 0 | [4]; 10 µM 0 | [5]; 10 µM 0 | [6]; 10 µM 0 | [7]; 10 µM 0 | [8]; 10 µM 0 | [9]; 10 µM 0 | [10]; 10 µM 0

Nc1cncc(-c2cn3ccnc3c(Nc3ccc(N4CCN(C5COC5)CC4)cc3)n2)n1 [Lanraplenib]
inactive: [1]; 10 µM 0 | [2]; 10 µM 0 | [3]; 10 µM 0 | [4]; 10 µM 0 | [5]; 10 µM 0 | [6]; 10 µM 0 | [7]; 10 µM 0 | [8]; 10 µM 0 | [9]; 10 µM 0 | [10]; 10 µM 0

Cc1cccc(/C=N/Nc2cc(N3CCOCC3)nc(OCCc3ccccn3)n2)c1 [Apilimod]
inactive: [1]; 2.5 µM 0 | [2]; 2.5 µM 0 | [3]; 2.5 µM 0 | [4]; 2.5 µM 0 | [5]; 2.5 µM 0 | [6]; 2.5 µM 0 | [7]; 2.5 µM 0 | [8]; 2.5 µM 0 | [9]; 2.5 µM 0 | [10]; 2.5 µM 0

CCS(=O)(=O)N1CCN(c2ccc(Nc3ncc(C(N)=O)c(NC4CC4)n3)cc2)CC1 [Cerdulatinib]
inactive: [1]; 10 µM 0 | [2]; 10 µM 0 | [3]; 10 µM 0 | [4]; 10 µM 0 | [5]; 10 µM 0 | [6]; 10 µM 0 | [7]; 10 µM 0 | [8]; 10 µM 0 | [9]; 10 µM 0 | [10]; 10 µM 0

Cc1cc(Nc2ncc(Cl)c(Nc3ccccc3S(=O)(=O)C(C)C)n2)c(OC(C)C)cc1C1CCNCC1 [Ceritinib]
inactive: [1]; 2.5 µM 0 | [2]; 2.5 µM 0 | [3]; 2.5 µM 0 | [4]; 2.5 µM 0 | [5]; 2.5 µM 0 | [6]; 2.5 µM 0 | [7]; 2.5 µM 0 | [8]; 2.5 µM 0 | [9]; 2.5 µM 0 | [10]; 2.5 µM 0

CCN(CC)CC(=O)Nc1c(C)cccc1C [Lidocaine (hydrochloride)]
inactive: [1]; 10 µM 0 | [2]; 10 µM 0 | [3]; 10 µM 0 | [4]; 10 µM 0 | [5]; 10 µM 0 | [6]; 10 µM 0 | [7]; 10 µM 0 | [8]; 10 µM 0 | [9]; 10 µM 0 | [10]; 10 µM 0

Cn1cc(-c2cnc3ccc4ccc(CS(=O)(=O)NCc5ccccn5)cc4c(=O)c3c2)cn1 [MK-8033 (hydrochloride)]
inactive: [1]; 10 µM 0 | [2]; 10 µM 0 | [3]; 10 µM 0 | [4]; 10 µM 0 | [5]; 10 µM 0 | [6]; 10 µM 0 | [7]; 10 µM 0 | [8]; 10 µM 0 | [9]; 10 µM 0 | [10]; 10 µM 0

C[C@H](Nc1cc(-c2cnn(C)c2)cc(Nc2cnccn2)n1)c1ccc(F)cc1 [Ilginatinib]
inactive: [1]; 2.5 µM 0 | [2]; 2.5 µM 0 | [3]; 2.5 µM 0 | [4]; 2.5 µM 0 | [5]; 2.5 µM 0 | [6]; 2.5 µM 0 | [7]; 2.5 µM 0 | [8]; 2.5 µM 0 | [9]; 2.5 µM 0 | [10]; 2.5 µM 0

CC(C)Oc1ccc(-c2nn([C@@H](C)c3oc4ccc(F)cc4c(=O)c3-c3cccc(F)c3)c3ncnc(N)c23)cc1F [Umbralisib (hydrochloride)]
inactive: [1]; 2.5 µM 0 | [2]; 2.5 µM 0 | [3]; 2.5 µM 0 | [4]; 2.5 µM 0 | [5]; 2.5 µM 0 | [6]; 2.5 µM 0 | [7]; 2.5 µM 0 | [8]; 2.5 µM 0 | [9]; 2.5 µM 0 | [10]; 2.5 µM 0

Cn1ncc(Cl)c1-c1cc(C(=O)N[C@H](CN)Cc2cccc(F)c2)sc1Cl [Afuresertib (hydrochloride)]
inactive: [1]; 10 µM 0 | [2]; 10 µM 0 | [3]; 10 µM 0 | [4]; 10 µM 0 | [5]; 10 µM 0 | [6]; 10 µM 0 | [7]; 10 µM 0 | [8]; 10 µM 0 | [9]; 10 µM 0 | [10]; 10 µM 0

O=C(Nc1cnn2ccc(N3CCC[C@@H]3c3cc(F)ccc3F)nc12)N1CC[C@H](O)C1 [Larotrectinib sulfate]
inactive: [1]; 10 µM 0 | [2]; 10 µM 0 | [3]; 10 µM 0 | [4]; 10 µM 0 | [5]; 10 µM 0 | [6]; 10 µM 0 | [7]; 10 µM 0 | [8]; 10 µM 0 | [9]; 10 µM 0 | [10]; 10 µM 0

COc1ccc2c(c1)C(c1ccc(F)cc1)=C(CN1CCCC1)CO2 [AX-024 hydrochloride]
inactive: [1]; 10 µM 0 | [2]; 10 µM 0 | [3]; 10 µM 0 | [4]; 10 µM 0 | [5]; 10 µM 0 | [6]; 10 µM 0 | [7]; 10 µM 0 | [8]; 10 µM 0 | [9]; 10 µM 0 | [10]; 10 µM 0

COCCOc1cc(F)c2c(Nc3ccc(NC(=O)Cn4cc(C(C)C)nn4)cc3)ncnc2c1 [AZD3229 Tosylate]
inactive: [1]; 10 µM 0 | [2]; 10 µM 0 | [3]; 10 µM 0 | [4]; 10 µM 0 | [5]; 10 µM 0 | [6]; 10 µM 0 | [7]; 10 µM 0 | [8]; 10 µM 0 | [9]; 10 µM 0 | [10]; 10 µM 0

3 consecutive records from above, quoted:
Cn1cc(-c2cnc3ccc4ccc(CS(=O)(=O)NCc5ccccn5)cc4c(=O)c3c2)cn1 [MK-8033 (hydrochloride)]
inactive: [1]; 10 µM 0 | [2]; 10 µM 0 | [3]; 10 µM 0 | [4]; 10 µM 0 | [5]; 10 µM 0 | [6]; 10 µM 0 | [7]; 10 µM 0 | [8]; 10 µM 0 | [9]; 10 µM 0 | [10]; 10 µM 0

C[C@H](Nc1cc(-c2cnn(C)c2)cc(Nc2cnccn2)n1)c1ccc(F)cc1 [Ilginatinib]
inactive: [1]; 2.5 µM 0 | [2]; 2.5 µM 0 | [3]; 2.5 µM 0 | [4]; 2.5 µM 0 | [5]; 2.5 µM 0 | [6]; 2.5 µM 0 | [7]; 2.5 µM 0 | [8]; 2.5 µM 0 | [9]; 2.5 µM 0 | [10]; 2.5 µM 0

CC(C)Oc1ccc(-c2nn([C@@H](C)c3oc4ccc(F)cc4c(=O)c3-c3cccc(F)c3)c3ncnc(N)c23)cc1F [Umbralisib (hydrochloride)]
inactive: [1]; 2.5 µM 0 | [2]; 2.5 µM 0 | [3]; 2.5 µM 0 | [4]; 2.5 µM 0 | [5]; 2.5 µM 0 | [6]; 2.5 µM 0 | [7]; 2.5 µM 0 | [8]; 2.5 µM 0 | [9]; 2.5 µM 0 | [10]; 2.5 µM 0
